Experimental data as given in patent publication US11850244B2, “Drug delivery systems and methods for treatment of bladder dysfunction or disorder using trospium” (TARIS BIOMEDICAL LLC, priority 2012, dated 2023).
Counter-ions that a name gives are not always drawn. Some results were stated once for a whole list of compounds, not compound by compound.

How the values were obtained:
[1] = oral therapeutic doses for 5 days; cited from earlier work
[2] = Antimuscarinic screen in rat bladder perfusion model (plasma, urine and tissue drug levels); details: 0-24 hours after exposure
Excerpt: The drugs were perfused at varying rates, concentrations, and times. Serial blood and urine samples were taken, and tissues (bladder, ureter, kidney, and prostate) were sampled to determine drug levels and distribution. Tissue histological exams were completed for safety.

| Structure (SMILES) | active compound excreted in the human's urine [1] [%] | urine concentration [2] |
| --- | --- | --- |
| Cc1ccc(O)c([C@H](CCN(C(C)C)C(C)C)c2ccccc2)c1 [Toterodine, tolterodine tartrate] | < 5 | – |
| O=C(O[C@H]1C[C@H]2CC[C@@H](C1)[N+]21CCCC1)C(O)(c1ccccc1)c1ccccc1 [Trospium, trospium chloride] | – | more than 200 μg/mL |
